{"source": "PubChem BioAssay AID504808 (Drosophila RNAi Screening Center, 2011)", "purpose": "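Chromatin factors that keep E2F targets switched off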 (primary screen)", "cell system": "Drosophila S2 cells", "reagent": "long dsRNA against Drosophila genes", "measured": "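Dual luciferase plate measurements; E2F-specific signal taken as firefly over Renilla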", "direction": "E2F firefly: higher = more E2F reporter activity; Renilla normaliser: higher = more normaliser reporter signal", "hit rule": "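Called active if the normalised E2F reporter went up by over 50%; the cutoff is arbitrary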", "note": "The deposit covers about 21,000 reagents; below is a random part of those that have a named target and a result. Of all reagents, 18 (0.084%) were called active. 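Raw counts without plate normalisation, one of two replicates; the ratio scores behind the calls were not deposited.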 Reagents against one gene are numbered here. No sequences are given here. The record does not give: the amount of reagent, the time to read-out."}
{"predicted target": "RhoL (GeneID 41136)", "reagent no.": 1, "E2F firefly, rep 1": 66123, "Renilla normaliser, rep 1": 3542, "activity call": "inactive"}
{"predicted target": "toe (GeneID 39418)", "reagent no.": 1, "E2F firefly, rep 1": 1.44e5, "Renilla normaliser, rep 1": 5024, "activity call": "inactive"}
{"predicted target": "toe (GeneID 39418)", "reagent no.": 2, "E2F firefly, rep 1": 99209, "Renilla normaliser, rep 1": 4387, "activity call": "inactive"}
{"predicted target": "CG1924 (GeneID 32180)", "reagent no.": 1, "E2F firefly, rep 1": 1.37e5, "Renilla normaliser, rep 1": 6482, "activity call": "inactive"}
{"predicted target": "CG17490 (GeneID 3355125)", "reagent no.": 1, "E2F firefly, rep 1": 1.18e5, "Renilla normaliser, rep 1": 4855, "activity call": "inactive"}
{"predicted target": "CG17490 (GeneID 3355125)", "reagent no.": 2, "E2F firefly, rep 1": 97211, "Renilla normaliser, rep 1": 4219, "activity call": "inactive"}
{"predicted target": "CG34267 (GeneID 5740365)", "reagent no.": 1, "E2F firefly, rep 1": 1.22e5, "Renilla normaliser, rep 1": 3730, "activity call": "inactive"}
{"predicted target": "CG12170 (GeneID 40692)", "reagent no.": 1, "E2F firefly, rep 1": 58159, "Renilla normaliser, rep 1": 3170, "activity call": "inactive"}
{"predicted target": "CG9920 (GeneID 41712)", "reagent no.": 1, "E2F firefly, rep 1": 1.08e5, "Renilla normaliser, rep 1": 5620, "activity call": "inactive"}
{"predicted target": "snRNP-U1-70K (GeneID 33982)", "reagent no.": 1, "E2F firefly, rep 1": 1.46e5, "Renilla normaliser, rep 1": 5374, "activity call": "inactive"}
{"predicted target": "Muc68E (GeneID 2768990)", "reagent no.": 1, "E2F firefly, rep 1": 1.38e5, "Renilla normaliser, rep 1": 4933, "activity call": "inactive"}
{"predicted target": "Oatp30B (GeneID 34268)", "reagent no.": 1, "E2F firefly, rep 1": 81898, "Renilla normaliser, rep 1": 3499, "activity call": "inactive"}
{"predicted target": "CG14177 (retired record) (GeneID 39113)", "reagent no.": 1, "E2F firefly, rep 1": 92276, "Renilla normaliser, rep 1": 4318, "activity call": "inactive"}
{"predicted target": "Jhbp16 (GeneID 42552)", "reagent no.": 1, "E2F firefly, rep 1": 1.32e5, "Renilla normaliser, rep 1": 8494, "activity call": "inactive"}
{"predicted target": "bug (GeneID 36749)", "reagent no.": 1, "E2F firefly, rep 1": 69964, "Renilla normaliser, rep 1": 3081, "activity call": "inactive"}
{"predicted target": "eIF1 (GeneID 38398)", "reagent no.": 1, "E2F firefly, rep 1": 1.07e5, "Renilla normaliser, rep 1": 4618, "activity call": "inactive"}
{"predicted target": "CG16753 (GeneID 38365)", "reagent no.": 1, "E2F firefly, rep 1": 71195, "Renilla normaliser, rep 1": 3143, "activity call": "inactive"}

The list goes on; the last 4 above are carried over.
{"predicted target": "Jhbp16 (GeneID 42552)", "reagent no.": 1, "E2F firefly, rep 1": 1.32e5, "Renilla normaliser, rep 1": 8494, "activity call": "inactive"}
{"predicted target": "bug (GeneID 36749)", "reagent no.": 1, "E2F firefly, rep 1": 69964, "Renilla normaliser, rep 1": 3081, "activity call": "inactive"}
{"predicted target": "eIF1 (GeneID 38398)", "reagent no.": 1, "E2F firefly, rep 1": 1.07e5, "Renilla normaliser, rep 1": 4618, "activity call": "inactive"}
{"predicted target": "CG16753 (GeneID 38365)", "reagent no.": 1, "E2F firefly, rep 1": 71195, "Renilla normaliser, rep 1": 3143, "activity call": "inactive"}
{"predicted target": "Fur1 (GeneID 47220)", "reagent no.": 1, "E2F firefly, rep 1": 88896, "Renilla normaliser, rep 1": 2465, "activity call": "inactive"}
{"predicted target": "Fur1 (GeneID 47220)", "reagent no.": 2, "E2F firefly, rep 1": 1855, "Renilla normaliser, rep 1": 888, "activity call": "inactive"}
{"predicted target": "Tpst (GeneID 32312)", "reagent no.": 1, "E2F firefly, rep 1": 86564, "Renilla normaliser, rep 1": 3842, "activity call": "inactive"}
{"predicted target": "Tpst (GeneID 32312)", "reagent no.": 2, "E2F firefly, rep 1": 94795, "Renilla normaliser, rep 1": 4486, "activity call": "inactive"}
{"predicted target": "Tpst (GeneID 32312)", "reagent no.": 3, "E2F firefly, rep 1": 1.34e5, "Renilla normaliser, rep 1": 6109, "activity call": "inactive"}
{"predicted target": "Tpst (GeneID 32312)", "reagent no.": 4, "E2F firefly, rep 1": 3688, "Renilla normaliser, rep 1": 228, "activity call": "inactive"}
{"predicted target": "CG17567 (retired record) (GeneID 50468)", "reagent no.": 1, "E2F firefly, rep 1": 1.05e5, "Renilla normaliser, rep 1": 4259, "activity call": "inactive"}
{"predicted target": "Arf1 (GeneID 40506)", "reagent no.": 1, "E2F firefly, rep 1": 72469, "Renilla normaliser, rep 1": 3408, "activity call": "inactive"}
{"predicted target": "insv (GeneID 33441)", "reagent no.": 1, "E2F firefly, rep 1": 1.70e5, "Renilla normaliser, rep 1": 5758, "activity call": "inactive"}
{"predicted target": "CG2614 (GeneID 35326)", "reagent no.": 1, "E2F firefly, rep 1": 49869, "Renilla normaliser, rep 1": 2972, "activity call": "inactive"}
{"predicted target": "CG10669 (GeneID 43069)", "reagent no.": 1, "E2F firefly, rep 1": 80417, "Renilla normaliser, rep 1": 4483, "activity call": "inactive"}
